No constants are given. Whether binding was seen depends on the method and setting. Binding seen in cells or lysates may run through a third protein. Binding can be weak; no strength is given. Tags and fused reporters may be left off the sequences shown.
Molecular target: T1, ANXA7 (construct co-expressed with DFNA5(Flag)) (human) (UniProt P20073)
T1 sequence: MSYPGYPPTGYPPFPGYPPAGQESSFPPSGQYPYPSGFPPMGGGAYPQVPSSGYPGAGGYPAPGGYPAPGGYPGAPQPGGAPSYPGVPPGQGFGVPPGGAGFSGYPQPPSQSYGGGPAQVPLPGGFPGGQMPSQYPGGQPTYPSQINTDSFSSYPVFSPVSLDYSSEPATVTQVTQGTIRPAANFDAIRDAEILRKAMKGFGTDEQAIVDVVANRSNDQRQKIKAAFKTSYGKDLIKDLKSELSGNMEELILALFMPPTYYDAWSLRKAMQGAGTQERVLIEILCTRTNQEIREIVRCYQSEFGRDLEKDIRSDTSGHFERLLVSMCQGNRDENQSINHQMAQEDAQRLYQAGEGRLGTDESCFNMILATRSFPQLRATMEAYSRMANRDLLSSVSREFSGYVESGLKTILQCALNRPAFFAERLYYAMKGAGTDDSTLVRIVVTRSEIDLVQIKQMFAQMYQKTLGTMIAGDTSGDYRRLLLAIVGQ
Test: co-IP

Cleaved N-terminal fragment of DFNA5 tagged with internal Flag (human) (domain or fragment)
binding: binds

— article doi:10.1101/2021.04.27.441709
